Measured values taken from article PMC6434023, “A TonB-dependent transporter is required for secretion of protease PopC across the bacterial outer membrane” (Nature Communications, 2019).
These are yes or no findings as the source states them, for the method shown. A result given as binding can be weak or reduced; the word gives no strength.

How the values were obtained:
Assay in all cases: two-hybrid; bacterial two-hybrid (BACTH) in E. coli BTH101; fragments fused N- or C-terminally to T25 and T18 of CyaA; blue colour on X-Gal/IPTG plates and β-galactosidase specific activity
[1] = target: C-terminal domain of the TonB protein MXAN_0276 (MXAN_0276 167-269) (M. xanthus) (UniProt Q1DFL6)
[2] = target: C-terminal domain of TonB1 of the Ton^Oar system (TonB1 147-250) (M. xanthus)
[3] = target: C-terminal domain of the TonB protein MXAN_0820 (MXAN_0820 163-266) (M. xanthus) (UniProt Q1DE40)

binding [1]: binds | binding [2]: binds | binding [3]: binds
B1: periplasmic N-terminal region of Oar that bears NTE and plug domains (Oar 24-248) (domain or fragment, UniProt P38370 24-248)
chain: AFAQSSTIIGTVIDAQSRQPAADVVVTATSPNLQGEQTVVTDAQGNYRIPQLPPGDYTLRFEKEQFKPYARSAIQLRLNRTIRVNVELLPEALGEVVEIVGAPPTIDVGSTTMGVNVDQEFIKRIAVARPGGKGGATRSFESLAELAPGAQNDNYGVSINGSTSPENGYVVDGLSTNDPAFGVNASPLSIEFVQDVNIITGGYMPEFGRSTGGVINAVTRSGSNE
